Measured data: PubChem BioAssay AID1259308 (NCATS, 2017)

Assay: 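Candidate targets for better recombinant protein yield in mammalian cells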 (primary screen)
Cell system: human HEK293 embryonic kidney cells stably expressing firefly luciferase (HEK-CMV-Luc2-Hygro)
Reagents: single siRNA against human genes, 0.8 pmol siRNA per well
Duration: 72 h
Measurement: 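Luciferase light (ONE-Glo) measured on one replicate plate set and viability (CellTiter-Glo) on the other, scaled to a negative control siRNA, with robust z-scores and luciferase per cell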
Reading the numbers: total luciferase, z-score: higher = more reporter protein produced
Call rule: 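Active when the median/MAD z-score for overall luciferase is greater than 3; a gene was taken forward for validation with new siRNAs if at least two of its three siRNAs passed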
Calls: active = raised luciferase; inactive = no rise
The deposit covers about 59,000 reagents; this is a random part of them. Over the whole deposit, about 1,510 (2.6%) are marked active. 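Calls use total luciferase alone and ignore viability, so some active siRNAs may act by altering cell number.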 Reagents against one gene are numbered here. Not all columns of the deposit are shown. No sequences are given here.

gene symbol	reagent no.	total luciferase, z-score	call
TMEM150C	1	-0.378	inactive
TMEM150C	2	-0.692	inactive
TMEM150C	3	-0.269	inactive
POLR3C	1	-0.925	inactive
POLR3C	2	1.05	inactive
POLR3C	3	-2.08	inactive
S100A2	1	1.73	inactive
S100A2	2	-0.0536	inactive
S100A2	3	-2.09	inactive
GNG5	1	0.961	inactive
GNG5	2	1.45	inactive
GNG5	3	1.08	inactive
PCDHGA1	1	-1.36	inactive
PCDHGA1	2	0.224	inactive
PCDHGA1	3	-1.95	inactive
TTLL2	1	-0.57	inactive
TTLL2	2	1.69	inactive
TTLL2	3	-0.129	inactive
RERE	1	-1.45	inactive
RERE	2	0.541	inactive
RERE	3	-0.411	inactive
EIF3H	1	-0.347	inactive
EIF3H	2	-1.72	inactive
EIF3H	3	-1.88	inactive
GAPDHS	1	-0.732	inactive
GAPDHS	2	-0.635	inactive
GAPDHS	3	-0.145	inactive
ZP2	1	-0.483	inactive
ZP2	2	1.31	inactive
ZP2	3	1.19	inactive
NMUR2	1	-0.219	inactive
NMUR2	2	-0.269	inactive
NMUR2	3	-0.0465	inactive
OR14A16	1	1.29	inactive
OR14A16	2	-0.116	inactive
OR14A16	3	2.56	inactive
DGUOK	1	-0.168	inactive
DGUOK	2	-1.77	inactive
DGUOK	3	-0.846	inactive
EFCAB5	1	-1.22	inactive
EFCAB5	2	0.495	inactive
EFCAB5	3	0.562	inactive
GNAL	1	0.0778	inactive
GNAL	2	-0.309	inactive
GNAL	3	-1.14	inactive
RNF11	1	0.191	inactive
RNF11	2	0.375	inactive
RNF11	3	-0.461	inactive
NTF3	1	1.49	inactive
NTF3	2	2.21	inactive
NTF3	3	1.85	inactive
ELSPBP1	1	0.138	inactive
ELSPBP1	2	0.783	inactive
ELSPBP1	3	-0.531	inactive
RABGEF1	1	-0.3	inactive
RABGEF1	2	2.53	inactive
RABGEF1	3	0.401	inactive

A few values from the list:
Under “call”, POLR3C #3 reads inactive
Under “call”, GNG5 #2 has inactive
OR14A16 #1, call: inactive
For “call”, TMEM150C #1 shows inactive
Under “total luciferase, z-score”, DGUOK #3 is entered as -0.846
Under “call”, EFCAB5 #2 is entered as inactive
